This passage reports survivor count and T/C results from PubChem BioAssay AID248 (DTP/NCI, 2004).

In this assay the test system is L1210 leukemia ip in BDF1 mice, survival T/C. As to the kind of experiment: NCI In Vivo Anticancer Drug Screen. Data for tumor model L1210 Leukemia (intraperitoneal) in B6D2F1 (BDF1) mice. The conditions noted are these: T/C endpoint: mean survival time, higher T/C = longer survival.
Where [1] appears, read: dose: 50.0 mg/kg/injection, schedule: Q04DX002 (ip), vehicle: Klucel (hydroxypropylcellulose) (HPC).
Setting [2] is: dose: 100.0 mg/kg/injection, schedule: Q04DX002 (ip), vehicle: Klucel (hydroxypropylcellulose) (HPC).
[3] abbreviates: dose: 200.0 mg/kg/injection, schedule: Q04DX002 (ip), vehicle: Klucel (hydroxypropylcellulose) (HPC).
[4] abbreviates: dose: 400.0 mg/kg/injection, schedule: Q04DX002 (ip), vehicle: Klucel (hydroxypropylcellulose) (HPC).
[5] abbreviates: dose: 400.0 mg/kg/injection, schedule: Q04DX003 (ip), vehicle: carboxymethylcellulose (CMC).
Where [6] appears, read: dose: 25.0 mg/kg/injection, schedule: Q01DX009 (ip), vehicle: saline.
The mark [7] stands for this setting: dose: 100.0 mg/kg/injection, schedule: Q01DX001 (ip), vehicle: saline.
[8] abbreviates: dose: 100.0 mg/kg/injection, schedule: Q01DX009 (ip), vehicle: saline.
The mark [9] stands for this setting: dose: 100.0 mg/kg/injection, schedule: Q04DX002 (ip), vehicle: saline.
Setting [10] is: dose: 400.0 mg/kg/injection, schedule: Q01DX001 (ip), vehicle: carboxymethylcellulose (CMC).
Setting [11] is: dose: 200.0 mg/kg/injection, schedule: Q01DX009 (ip), vehicle: saline.
The mark [12] stands for this setting: dose: 400.0 mg/kg/injection, schedule: Q01DX009 (ip), vehicle: saline.
Where [13] appears, read: dose: 200.0 mg/kg/injection, schedule: Q01DX001 (ip), vehicle: saline.
[14] abbreviates: dose: 400.0 mg/kg/injection, schedule: Q01DX001 (ip), vehicle: saline.
Setting [15] is: dose: 400.0 mg/kg/injection, schedule: Q01DX001 (ip), vehicle: saline with Tween-80.
Where [16] appears, read: dose: 200.0 mg/kg/injection, schedule: Q01DX001 (ip), vehicle: Klucel (hydroxypropylcellulose) (HPC).
Setting [17] is: dose: 400.0 mg/kg/injection, schedule: Q01DX001 (ip), vehicle: Klucel (hydroxypropylcellulose) (HPC).
Where [18] appears, read: dose: 6.25 mg/kg/injection, schedule: Q04DX002 (ip), vehicle: saline with Tween-80.
The mark [19] stands for this setting: dose: 25.0 mg/kg/injection, schedule: Q04DX002 (ip), vehicle: saline with Tween-80.

The list shows only some results of the screen, not a fair sample: it is rich in T/C values a quarter to a half above the control, in often repeated tests (any T/C) and in doses without a T/C. Further doses and runs are listed elsewhere. T/C is the treated group as % of the vehicle group. Some entries give survivors of the animals treated and no T/C: the source files T/C as zero there, which appears to mark a toxic dose or a test without result, not a measured value. Some doses without a T/C left all or most animals alive at the check, yet need not have been tolerated: the source hardly ever lists a survival T/C far under the control, and the zero likely stands for such cases as well. Survivors were counted at the toxicity check, usually on the fifth day, unless a day is given; later deaths do not show. Schedule codes are those of the source, taken here to give the interval after Q, in days (D) or hours (H), and the number of doses after X. Some entries were tested several times; the results are listed from low to high. Some schedules carry Z or #; the key to these is not given. Some structures stand for samples that the source files as different forms (salt, stereo form or complex); doses refer to the form tested. Where survival is the endpoint, this PubChem deposit counts one and a half times the control or more as active, and values a quarter to a half above the control carry no call in these data; other NCI protocols may use other cut-offs. Some T/C values are followed by the survivors on the day toxicity was checked, most often the fifth; where none is given, no animal had died by that day. Counts like (3×) stand for listed records that agree.

Regarding `Nc1ccc(-c2cc3ccccc3oc2=O)cc1`, the survivor count reads like this: (dose: 25.0 mg/kg/injection, schedule: Q04DX002 (ip), vehicle: Klucel (hydroxypropylcellulose) (HPC)) 0 of 3; under setting [1], 0 of 3; under setting [2], 0 of 3; under setting [3], 0 of 3; under setting [4], 0 of 3.

For `CC1CC(=O)c2c(cc3c(-c4c(O)cc(O)c5c(O)c6c(cc45)OC(C)CC6=O)c(O)cc(O)c3c2O)O1` (configuration not stated), the survivor count under setting [5] is listed as 0 of 6.

Turning to `NC(CCl)=NCc1ccccc1`, the T/C is 88, 98, 104 % of control under setting [6] and 88 % of control under setting [9]. Moreover, the survivor count is, setting by setting: under setting [6], 3 of 3; (dose: 50.0 mg/kg/injection, schedule: Q01DX009 (ip), vehicle: saline) 5 of 6 and 3 of 3; under setting [7], 2 of 6; under setting [8], 0 of 3 and 0 of 6; under setting [9], 1 of 6, 1 of 3, 5 of 6; (dose: 200.0 mg/kg/injection, schedule: Q04DX002 (ip), vehicle: saline) 0 of 3 and 0 of 6. Further, the survivor count (dose: 400.0 mg/kg/injection, schedule: Q04DX002 (ip), vehicle: saline) was 0 of 3 and 0 of 6.

On to `NCc1c(Cl)c(Cl)c(Cl)c(CN)c1Cl`, for which the survivor count reads like this: (dose: 200.0 mg/kg/injection, schedule: Q01DX001 (ip), vehicle: carboxymethylcellulose (CMC)) 1 of 4; under setting [10], 0 of 4.

`C/C(=N/N(C)C)c1ccc(C)cc1`: the survivor count runs as follows: under setting [11], 3 of 6; under setting [12], 0 of 6.

As for `CC(C)=CC[P+](c1ccccc1)(c1ccccc1)c1ccccc1`, the survivor count was 0 of 6 and 2 of 6 under setting [7]; 1 of 3 under setting [8]; 0 of 6 under setting [13]; 0 of 3 under setting [11]; 0 of 6 under setting [14].

Take `C=CCO[Si](OCC=C)(OCC=C)OCC=C`: the survivor count (dose: 300.0 mg/kg/injection, schedule: Q01DX001 (ip), vehicle: other) is 3 of 6.

For `CN1CCN(C(=O)Nc2cccc(Cl)c2Cl)CC1`, the survivor count is 5 of 6 under setting [11] and 1 of 6 under setting [12].

Turning to `Oc1ccc(O)c(-c2cc3c(O)ccc(O)c3[nH]2)c1`, the survivor count runs as follows: under setting [1], 3 of 3; under setting [2], 3 of 3.

For `CC(C)(C)C1CCCC(=O)CC1` (configuration not stated), the survivor count is 2 of 4 under setting [7], 0 of 4 under setting [13] and 0 of 4 under setting [14].

On to `CC(=O)Oc1ccc(N)cc1OC(C)=O`, for which the survivor count is given as 5 of 6 (dose: 75.0 mg/kg/injection, schedule: Q01DX001 (ip), vehicle: steroid suspending solution) and 2 of 6 (dose: 300.0 mg/kg/injection, schedule: Q01DX001 (ip), vehicle: steroid suspending solution).

On to `O=C1c2ccccc2C(=O)N1Cc1cccc(Nc2cc(=O)[nH]c(=O)[nH]2)c1`, for which the survivor count was 6 of 6 (dose: 100.0 mg/kg/injection, schedule: Q01DX001 (ip), vehicle: saline with Tween-80) and 6 of 6 under setting [15].

Take `CCCCOC(=O)CN(C)/N=N/c1nc[nH]c1C(=O)OCC`: the survivor count reads like this: under setting [16], 2 of 6; under setting [17], 0 of 6.

`[B-][N+](C)(C)C`: the survivor count is 6 of 10 under setting [16] and 1 of 10 under setting [17].

On to `CC(=O)N(C)c1ccc(NC(=O)CCl)cc1`, for which the survivor count (dose: 400.0 mg/kg/injection, schedule: Q01DX009 (ip), vehicle: Klucel (hydroxypropylcellulose) (HPC)) was 0 of 6.

With `OCC1OC(n2cnc3c(NO)nc(NO)nc32)C(O)C1O` (configuration not stated), the T/C is 129 % of control (dose: 9.0 mg/kg/injection, schedule: Q01DX009 (ip), vehicle: saline); 137 % of control (dose: 13.0 mg/kg/injection, schedule: Q01DX009 (ip), vehicle: saline); 140 % of control (dose: 20.0 mg/kg/injection, schedule: Q01DX009 (ip), vehicle: saline); 125 % of control (dose: 75.0 mg/kg/injection, schedule: Q01DX001 (ip), vehicle: saline). Besides, the survivor count (dose: 300.0 mg/kg/injection, schedule: Q01DX001 (ip), vehicle: saline) is reported as 0 of 6.

In the case of `CC(C)=CCCC(C)C/C=N\N=C(N)N` (configuration not stated), the survivor count is, setting by setting: (dose: 120.0 mg/kg/injection, schedule: Q01DX Z (ip), vehicle: carboxymethylcellulose (CMC)) 0 of 6; (dose: 240.0 mg/kg/injection, schedule: Q01DX Z (oral), vehicle: carboxymethylcellulose (CMC)) 2 of 6; (dose: 480.0 mg/kg/injection, schedule: Q01DX Z (oral), vehicle: carboxymethylcellulose (CMC)) 0 of 6; (dose: 960.0 mg/kg/injection, schedule: Q01DX Z (oral), vehicle: carboxymethylcellulose (CMC)) 0 of 6.

For `O=C1CC2CCC(C1)N2CC1COc2ccccc2O1` (configuration not stated), under setting [14], the survivor count is reported as 0 of 6.

For `CCCCCCC(=O)N(CCC)CCC`, the survivor count under setting [10] was 3 of 6; the survivor count (dose: 400.0 mg/kg/injection, schedule: Q01DX009 (ip), vehicle: carboxymethylcellulose (CMC)) is 0 of 3 and 0 of 6; the survivor count under setting [5] is recorded as 3 of 6.

In the case of `Cn1nc(NC(=O)C(F)(F)F)c2nccnc21`, where the note is “dose: 400.0 mg/kg/injection, schedule: Q01DX009 (ip), vehicle: saline with Tween-80”, the survivor count is given as 5 of 6.

As for `CCCCCCCNCCC#N`, the survivor count under setting [15] was 0 of 6.

`Nc1nc2c(ncn2-c2cccc(-c3ccccc3)c2)c(=O)[nH]1`: the survivor count reads like this: (dose: 100.0 mg/kg/injection, schedule: Q04DX003 (ip), vehicle: saline with Tween-80) 6 of 6; (dose: 400.0 mg/kg/injection, schedule: Q04DX003 (ip), vehicle: saline with Tween-80) 6 of 6.

In the case of `N#CS/C=C\C(=O)O`, the survivor count runs as follows: (dose: 6.25 mg/kg/injection, schedule: Q01DX001 (ip), vehicle: saline with Tween-80) 6 of 6; under setting [18], 3 of 3; (dose: 25.0 mg/kg/injection, schedule: Q01DX001 (ip), vehicle: saline with Tween-80) 6 of 6; under setting [19], 3 of 3; (dose: 50.0 mg/kg/injection, schedule: Q01DX001 (ip), vehicle: saline with Tween-80) 1 of 6; (dose: 50.0 mg/kg/injection, schedule: Q01DX009 (ip), vehicle: saline with Tween-80) 0 of 10. The survivor count was 0 of 3, 0 of 6, 1 of 6, 1 of 3 (dose: 50.0 mg/kg/injection, schedule: Q04DX002 (ip), vehicle: saline with Tween-80); 0 of 3 under setting [2]; 0 of 3, 0 of 6, 1 of 6 (dose: 100.0 mg/kg/injection, schedule: Q04DX002 (ip), vehicle: saline with Tween-80); 0 of 3 under setting [3]; 0 of 3 under setting [4]. Further, the T/C reads like this: under setting [18], 104, 105, 112, 114 % of control; (dose: 12.5 mg/kg/injection, schedule: Q04DX002 (ip), vehicle: saline with Tween-80) 93, 103, 106, 125, 127 % of control [2 of 3 alive]; under setting [19], 98, 100, 101 [2 of 3 alive] (2×), 103, 129 % of control.
